Source: patent US20130203649A1, “INHIBITORS OF TLR SIGNALING BY TARGETING TIR DOMAIN INTERFACES” (UNIVERSITY OF MARYLAND, BALTIMORE, priority 2012, published 2013)
Some results were stated once for a whole list of compounds, not compound by compound. No end group written: not given here.

Test system: TLR4
Assay: LPS-induced MAPK (ERK, JNK, p38) activation in mouse macrophages (Western analysis)
Assay type: cell-based
Conditions: 20 μM peptide; post-stimulation
Protocol: Cellular protein extracts were isolated by addition of 240 μL per well cold lysate buffer (20 mM Tris, 50 mM NaCl, 1.5 mM MgCl2, 2 mM EDTA, 10 mM NaF, 2 Mm DTT, 1 mM Na3VO4, 1% Triton). Cells were incubated with lysis solution for 30 min on agitator at 4° C. Lysate was then collected and centrifuged at 14,000 g for 10 minutes at 4° C. After quantification using BioRad protein assay, protein samples were added to Laemmli buffer and then boiled for 10 min. Samples were then resolved by SDS-10% PAGE in Tris/glycine/SDS buffer (25 mM Tris, 250 mM glycine, 0.1% SDS), and transferred onto Immobilon P transfer membranes (Millipore, Bedford, Mass.) (100 V, 1.5 h, 4° C.). […]
HEK293T cells were transfected with indicated plasmids using Superfect Transfection Reagent (Qiagen). […] Protein was quantified using Bio-Rad protein quantification kit. Equal amount of protein was loaded and analyzed by 10% SDS-PAGE and immunoblotting. The cell extracts containing equal amount of protein were incubated with 1 μg Ab for 2 h, followed by 4-h incubation with 25 μl protein G agarose beads (Roche); the beads were then washed four times with lysis buffer, boiled in […] sample loading buffer, and analyzed by immunoblotting. […]

Row | Sequence | Duration of prevention of LPS-induced ERK activation
1 | RQIKIWFQNRRMKWKKGGFYQVKEAVIHY [TR11] | at least 1 hour
2 | RQIKIWFQNRRMKWKKPGFLRDPWCKYQML [TR6] | at least 1 hour
